Measurements published in the supplement of paper PMC10849652.
The list shows a part of the results.

By UniProt entry, the sequences of proteins in these tests, tags left out. Where a name states a change or a piece, a line headed by the entry shows the natural chain unless it says otherwise.
UniProt Q6DHV7: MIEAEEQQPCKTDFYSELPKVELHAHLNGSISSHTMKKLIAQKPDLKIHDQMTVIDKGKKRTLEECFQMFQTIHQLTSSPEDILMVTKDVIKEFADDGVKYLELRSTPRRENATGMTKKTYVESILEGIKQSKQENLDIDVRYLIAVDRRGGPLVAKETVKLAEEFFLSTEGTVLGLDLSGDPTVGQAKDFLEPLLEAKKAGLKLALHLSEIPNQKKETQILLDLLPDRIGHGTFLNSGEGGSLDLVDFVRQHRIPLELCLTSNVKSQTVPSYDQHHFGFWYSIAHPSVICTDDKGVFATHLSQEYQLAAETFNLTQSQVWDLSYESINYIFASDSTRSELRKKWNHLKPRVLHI
UniProt Q96EY9: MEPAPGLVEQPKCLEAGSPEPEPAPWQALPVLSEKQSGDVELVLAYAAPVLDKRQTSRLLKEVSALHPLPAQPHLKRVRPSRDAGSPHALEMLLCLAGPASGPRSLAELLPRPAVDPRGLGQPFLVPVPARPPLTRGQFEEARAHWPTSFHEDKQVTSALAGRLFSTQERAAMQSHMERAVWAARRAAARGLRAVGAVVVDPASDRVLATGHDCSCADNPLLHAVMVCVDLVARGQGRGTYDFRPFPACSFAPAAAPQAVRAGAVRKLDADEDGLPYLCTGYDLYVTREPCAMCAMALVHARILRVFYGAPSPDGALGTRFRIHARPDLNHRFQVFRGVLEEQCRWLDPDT
UniProt P55263: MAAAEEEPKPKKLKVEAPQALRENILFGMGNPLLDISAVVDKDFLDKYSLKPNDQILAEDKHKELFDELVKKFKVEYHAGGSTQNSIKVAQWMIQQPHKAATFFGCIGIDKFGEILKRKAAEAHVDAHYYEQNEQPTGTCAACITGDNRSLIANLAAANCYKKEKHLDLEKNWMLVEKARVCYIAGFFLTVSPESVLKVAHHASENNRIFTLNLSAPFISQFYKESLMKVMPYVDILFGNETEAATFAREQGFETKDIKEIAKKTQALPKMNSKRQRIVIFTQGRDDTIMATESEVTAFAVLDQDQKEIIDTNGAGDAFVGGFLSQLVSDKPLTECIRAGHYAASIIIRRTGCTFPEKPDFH
UniProt P30520: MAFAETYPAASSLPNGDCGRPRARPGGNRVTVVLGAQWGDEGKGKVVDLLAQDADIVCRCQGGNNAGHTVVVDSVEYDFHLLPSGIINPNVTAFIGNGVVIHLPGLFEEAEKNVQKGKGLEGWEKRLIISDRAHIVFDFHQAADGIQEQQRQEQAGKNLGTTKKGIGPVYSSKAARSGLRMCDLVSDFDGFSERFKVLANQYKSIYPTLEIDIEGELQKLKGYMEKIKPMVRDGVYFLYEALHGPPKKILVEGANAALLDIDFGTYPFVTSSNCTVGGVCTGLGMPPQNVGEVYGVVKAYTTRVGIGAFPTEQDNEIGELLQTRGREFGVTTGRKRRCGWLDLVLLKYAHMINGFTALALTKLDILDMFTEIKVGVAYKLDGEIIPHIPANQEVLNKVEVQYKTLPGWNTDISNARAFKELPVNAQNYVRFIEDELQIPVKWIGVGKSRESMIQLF
UniProt Q9BRR6: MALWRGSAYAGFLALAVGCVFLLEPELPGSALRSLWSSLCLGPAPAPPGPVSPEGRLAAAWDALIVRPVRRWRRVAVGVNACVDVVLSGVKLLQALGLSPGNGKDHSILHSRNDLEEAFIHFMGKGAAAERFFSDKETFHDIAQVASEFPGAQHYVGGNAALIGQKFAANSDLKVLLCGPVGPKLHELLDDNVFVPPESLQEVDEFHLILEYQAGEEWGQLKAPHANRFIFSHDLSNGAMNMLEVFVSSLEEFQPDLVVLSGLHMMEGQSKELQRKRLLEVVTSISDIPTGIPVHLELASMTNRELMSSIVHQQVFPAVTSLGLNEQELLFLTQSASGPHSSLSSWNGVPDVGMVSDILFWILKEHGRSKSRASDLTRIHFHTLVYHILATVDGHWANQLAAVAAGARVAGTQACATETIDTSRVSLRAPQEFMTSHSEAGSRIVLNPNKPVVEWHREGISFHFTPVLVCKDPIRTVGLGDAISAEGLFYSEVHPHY
UniProt Q99943: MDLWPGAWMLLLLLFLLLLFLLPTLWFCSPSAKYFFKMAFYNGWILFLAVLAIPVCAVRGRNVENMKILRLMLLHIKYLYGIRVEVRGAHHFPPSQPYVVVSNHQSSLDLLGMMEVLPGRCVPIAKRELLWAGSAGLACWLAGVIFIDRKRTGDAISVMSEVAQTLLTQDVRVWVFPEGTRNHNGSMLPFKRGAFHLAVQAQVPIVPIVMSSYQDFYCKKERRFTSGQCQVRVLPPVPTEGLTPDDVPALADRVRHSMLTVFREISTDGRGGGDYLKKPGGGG
UniProt Q53H12: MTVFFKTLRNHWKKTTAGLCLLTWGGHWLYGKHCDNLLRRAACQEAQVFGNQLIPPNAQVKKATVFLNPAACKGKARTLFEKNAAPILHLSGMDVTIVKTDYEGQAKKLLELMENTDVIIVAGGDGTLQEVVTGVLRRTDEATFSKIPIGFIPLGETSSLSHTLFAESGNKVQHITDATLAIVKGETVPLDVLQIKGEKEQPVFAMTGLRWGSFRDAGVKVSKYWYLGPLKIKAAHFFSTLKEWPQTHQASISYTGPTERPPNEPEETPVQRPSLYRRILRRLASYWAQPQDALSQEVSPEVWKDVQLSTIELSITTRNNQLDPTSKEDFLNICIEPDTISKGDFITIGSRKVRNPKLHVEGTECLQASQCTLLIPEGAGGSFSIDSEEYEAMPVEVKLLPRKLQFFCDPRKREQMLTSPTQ

Columns and labels:
Test in all cases: log2 fold change, soluble protein after heating vs DMSO (PISA); higher = thermal stabilisation; K562 lysate, 10 uM; active = over 0.2 and 3.5 SD of the protein, either way, in both replicates (recomputed)
[1] = compound: C#Cc1cccc(Nc2ncnc3cc(OCCOC)c(OCCOC)cc23)c1 [erlotinib]
Outline: (§1)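 Values give the log-two fold change in thermal stability against solvent controls, from duplicates. Crude K562 extract at 1 mg/mL protein, made by dounce homogenisation in PBS pH 7.4 with 1 mM MgCl2, was treated with 10 μM compound for 30 min. After 3 min heating across 48°C-58°C, aliquots were pooled, adjusted to 0.5% NP-40 at 4°C and centrifuged at 21,000xg for 90 min. The supernatant was measured by TMTpro 16plex LC-MS/MS with channel sums equalised.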

[2] = compound: C/C(=N\NC(=O)C1=CC(=CC=C1)S(=O)(=O)N2CCOCC2)/C3=C(C=CC(=C3)Cl)O
Outline: as §1

[3] = compound: C1=CC(=CC=C1C2=NC3=C(N2)C=C(C=C3)C(=O)N)OC4=CC=C(C=C4)Cl
Outline: as §1

[4] = compound: C1=CC2=C(C=CC(=C2)/C=C\3/C(=O)NC(=NCC4=CC=CS4)S3)N=C1
Outline: as §1

[5] = compound: C1=CC2=NC=CN=C2C=C1/C=C/3\C(=O)NC(=O)S3
Outline: as §1

[6] = compound: C1=CC=C(C=C1)C2=NC(=C(N2)C3=CC=NC=C3)C4=CC(=C(C=C4)Cl)O
Outline: as §1

[7] = compound: C1=CC=C2C(=C1)C3=NNC4=CC=CC(=C43)C2=O
Outline: as §1

[8] = compound: C1CCN(C1)C(=O)NC2=CC=CC(=C2)NC3=NC=C(C(=N3)NCCC4=CN=CN4)Br
Outline: as §1

[9] = compound: C1CN(CCC1(CC2=CC=C(C=C2)Cl)N)C3=NC=NC4=C3C=CN4
Outline: as §1

[10] = compound: C1COCCN1CCN2C3=CC=CC=C3N=C2NC(=O)C4=CC(=CC=C4)[N+](=O)[O-] [IRAK-1-4 Inhibitor I]
Outline: as §1

[11] = compound: C=CC(=O)N1CCC[C@@H](n2nc(-c3ccc(Oc4ccccc4)cc3)c3c(N)ncnc32)C1 [ibrutinib]
Outline: as §1

[12] = compound: CC(=O)c1cnc2ccc(-c3cc(Cl)c(O)c(Cl)c3)nc2c1N[C@H]1CC[C@H](CN(C)C)CC1
Outline: as §1

[13] = compound: CC(C)(C)Cn1c(N)nc2ccc(-c3[nH]c(C(C)(C)C)nc3-c3ccc(F)cc3)nc21 [ralimetinib]
Outline: as §1

[14] = compound: CC(C)(O)CC(=O)NCCn1ccc2ncnc(Nc3ccc(Oc4cccc(C(F)(F)F)c4)c(Cl)c3)c21
Outline: as §1

[15] = compound: CC(C)C1=C2N=C(C=C(N2N=C1)NCC3=CC=CC=C3)NCCCCCCN
Outline: as §1

[16] = compound: CC1=C(C(CC(=O)N1)C2=CC=C(C=C2)C(F)(F)F)C(=O)NC3=C(C=C4C(=C3)C=NN4)F
Outline: as §1

[17] = compound: CC1=C(C2=C(C=C1)C(=O)C3=CC=CC=C3N2CCCN)C
Outline: as §1

[18] = compound: CC1=C(C=C(C=C1)NC(=O)C2=CC(=CC=C2)C(C)(C)C#N)NC3=CC4=C(C=C3)N=CN(C4=O)C
Outline: as §1

[19] = compound: CC1=C(C=C(C=C1)NC(=O)C2=CC(=CC=C2)N(C)C)NC(=O)C3=CC=C(C=C3)O
Outline: as §1

[20] = compound: CC1=CC=C(C=C1)SC2=C3C=C(SC3=CN=C2)C(=O)N
Outline: as §1

Measured: log2 fold change

ADAL (UniProt Q6DHV7)
inactive: [1] -0.008 | [2] -0.009 | [3] -0.007 | [4] 0.033 | [5] -0.012 | [6] -0.007 | [7] -0.015 | [8] -0.003 | [9] 0.046 | [10] 0.004 | [11] 0.057 | [12] 0.011 | [13] 0.02 | [14] 0.017 | [15] -0.013 | [16] 0.014 | [17] -0.009 | [18] -0.039 | [19] 0.015 | [20] -0.015

ADAT3 (UniProt Q96EY9)
inactive: [1] -0.029 | [2] 0.013 | [3] -0.024 | [4] -0.041 | [5] 0.009 | [6] 0.019 | [7] -0.059 | [8] 0.136 | [9] -0.022 | [10] 0.045 | [11] 0.033 | [12] 0.059 | [13] 0.058 | [14] -0.017 | [15] -0.031 | [16] 0.006 | [17] -0.015 | [18] -0.015 | [19] -0.031 | [20] -0.009

AK2 (UniProt P54819)
inactive: [1] -0.011 | [2] -0.052 | [3] 0.035 | [4] -0.002 | [5] 0.002 | [6] 0.016 | [7] 0.014 | [8] -0.008 | [9] -0.002 | [10] 0.005 | [11] 0.054 | [12] -0.022 | [13] -0.013 | [14] 0.027 | [15] 0.018 | [16] -0.018 | [17] 0.003 | [18] -0.018 | [19] -0.031 | [20] -0.024

ADK (UniProt P55263)
inactive: [1] 0.219 | [2] -0.024 | [3] -0.028 | [4] 0.132 | [5] -0.079 | [6] 0.047 | [7] 0.011 | [8] -0.049 | [9] 0.026 | [10] 0.063 | [11] -0.028 | [12] 0.107 | [13] 0.313 | [14] -0.027 | [15] -0.05 | [16] -0.073 | [17] -0.059 | [18] -0.007 | [19] -0.008 | [20] -0.005

ADSS2 (UniProt P30520)
inactive: [1] -0.023 | [2] -0.009 | [3] 0.043 | [4] -0.017 | [5] 0.012 | [6] 0.025 | [7] -0.002 | [8] 0.006 | [9] -0.004 | [10] 0.045 | [11] -0.003 | [12] -0.009 | [13] 0.023 | [14] 0.011 | [15] -0.003 | [16] -0.023 | [17] 0 | [18] -0.001 | [19] -0.006 | [20] 0

ADPGK (UniProt Q9BRR6)
inactive: [1] -0.037 | [2] 0.053 | [3] -0.135 | [4] 0.045 | [5] 0.01 | [6] 0 | [7] -0.035 | [8] -0.086 | [9] 0.026 | [10] 0.008 | [11] 0.039 | [12] 0.015 | [13] 0.026 | [14] -0.026 | [15] 0.014 | [16] 0.052 | [17] -0.038 | [18] -0.06 | [19] 0.008 | [20] -0.034

AGPAT1 (UniProt Q99943)
inactive: [1] 0.012 | [2] 0.027 | [3] -0.145 | [4] 0.05 | [5] 0.028 | [6] -0.023 | [7] -0.01 | [8] -0.019 | [9] 0.01 | [10] 0.036 | [11] -0.121 | [12] -0.05 | [13] 0.027 | [14] -0.051 | [15] -0.026 | [16] 0.06 | [17] 0.012 | [18] 0.02 | [19] 0.043 | [20] 0.042

AGK (UniProt Q53H12)
inactive: [1] 0.025 | [2] 0.005 | [3] -0.111 | [4] 0.019 | [5] -0.015 | [6] -0.022 | [7] 0.033 | [8] -0.014 | [9] -0.006 | [10] -0.01 | [11] -0.009 | [12] -0.005 | [13] -0.024 | [14] -0.062 | [15] 0.007 | [16] -0.013 | [17] 0.009 | [18] 0.003 | [19] 0.023 | [20] 0.041
